Measured values published in patent US8455444B2, “CDH3 peptide and medicinal agent comprising the same” (Oncotherapy Science, Inc., priority 2007, dated 2013).
Entries after “also recorded” stand apart in the source; their conditions may differ. At least one peptide structure holds a part that was inferred or is arguable (an end, a ring closure or a residue). Where a SMILES comes first, the peptide text is derived from it.

How the values were obtained:
[1] = tested on: CDH3 peptide-pulsed BM-DCs; test: IFN-γ ELISPOT assay of killer T cells from immunized HLA-A2 transgenic mice; type: cell-based
HCT116 = test: Adoptive immunotherapy with peptide-induced human CTLs in NOD/SCID mice bearing HCT116 tumors; type: in vivo; conditions: peptide-stimulated T cells 4×10^6 i.v. on day 7 and day 14; versus HIV peptide-induced CD8+ T cells or PBS

CC[C@H](C)[C@H](NC(=O)[C@@H](N)Cc1ccccc1)C(=O)N[C@@H](CC(C)C)C(=O)N1CCC[C@H]1C(=O)N[C@H](C(=O)N[C@@H](CC(C)C)C(=O)NCC(=O)N[C@@H](C)C(=O)N[C@H](C(=O)O)C(C)C)C(C)C [CDH3-4, FILPVLGAV] (H-FILPVLGAV-OH)
IFN-γ spots in response to BM-DCs pulsed with the peptide ([1]; CD4-negative spleen cells of mice immunized with peptide-pulsed BM-DCs, E/T ratio 10:1): 283.7±40.0 spots/well | CDH3 specific killer T cell immune response (IFN-γ production) ([1]; killer T cells induced with the peptide, pulsed vs unpulsed BM-DCs): CDH3 specific killer T cell immune response was observed; also recorded: specifically recognized BM-DCs pulsed with CDH3 peptides and produced IFN-γ | tumor growth / tumor size (HCT116): Inhibition of growth

CC[C@H](C)[C@H](NC(=O)[C@@H](NC(=O)[C@@H](N)Cc1ccccc1)[C@@H](C)CC)C(=O)N[C@@H](CCC(=O)O)C(=O)N[C@@H](CC(N)=O)C(=O)N[C@@H](CC(C)C)C(=O)N[C@@H](CCCCN)C(=O)N[C@@H](C)C(=O)N[C@@H](C)C(=O)O [CDH3-7, FIIENLKAA] (H-FIIENLKAA-OH)
tumor growth / tumor size (HCT116): Inhibition of growth
